# Laboratory results as given in PubChem BioAssay AID493014 (National Center for Advancing Translational Sciences (NCATS), 2011).
# The list shows a part of the results. The main result of the screen is listed elsewhere. These columns were measured beside it and carry no call. Most of these compounds were active or inconclusive in the main read-out, so they are no random draw. The note in brackets gives the kind of curve behind each potency; many fits are weak.
# Test: qHTS Assay to Find Inhibitors of Chronic Active B-Cell Receptor Signaling
# Settings: ABC-DLBCL IkBa-CBG/CBR reporter, luminescence ratio (green luciferase fused to IkBa over red control in TMD8 lymphoma cells), 4 h
# In short: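 Concentration-response series (up to 46 uM) were applied to TMD8 dual-reporter cells for 4 h at 37C with doxycycline. Green/red ratio, after filter-overlap correction, defined %Activity; red signal alone was normalised to basal cells and zero luminescence.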
# [1] = measured here: CBR red luminescence, cell number
# [2] = measured here: IkBa-CBG green luminescence
Structure (SMILES),AC50 [1],AC50 [2]
Cc1csc(NC(=O)/C=C/c2ccc(C)o2)n1,"18.4 µM [falling, single point]",
CCN(CC)C(=O)CSc1nnc(-c2ccccc2)n1N,"22.4 µM [rising, single point]",
CC(=O)c1ccc(N(C(=O)Cn2nnc(-c3ccccc3)n2)C(C(=O)NC2CCCCC2)c2ccccn2)cc1 (stereo not given),"13 µM [rising, partial curve, poor fit]",
CCCc1cc(C(=O)Cc2nc3ccccc3s2)c(O)cc1O,"14.1 µM [falling, single point]",
CCCC(=O)c1cc(F)c(N2CCN(S(=O)(=O)c3ccccc3)CC2)cc1C,"20.6 µM [rising, partial curve, poor fit]",
CCOC(=O)c1sc(NC(=O)c2c(OC)cccc2OC)nc1C,"4.11 µM [falling, full curve, poor fit]","4.61 µM [rising, full curve, poor fit]"
O=C(Nc1nccs1)C1CCN(S(=O)(=O)c2ccccc2)CC1,"25.1 µM [falling, single point]",
COc1ccc(C(C)NC(=O)Cc2cccs2)cc1OC (stereo not given),"35.5 µM [rising, partial curve, poor fit]",
COc1cc(OC)c(N2CC(C(=O)Nc3cc(Cl)ccc3N3CCOCC3)CC2=O)cc1Cl (stereo not given),"23.1 µM [rising, partial curve]","20.6 µM [falling, single point]"
CC1=C(n2nnc([N+](=O)[O-])n2)C(c2cccnc2)C(C#N)=C(N)O1 (stereo not given),"16.4 µM [falling, single point]",
Cc1cc(N=Cc2c(O)n(-c3cccc(Cl)c3)c(=O)c3ccccc23)no1,"0.461 µM [rising, full curve, poor fit]",
COC(=O)c1sc(=S)n(-c2ccc(Cl)cc2)c1C,"23.1 µM [rising, partial curve, poor fit]",
CC1CCN(Cc2ccc(NC(=O)CC3Oc4ccccc4NC3=O)cc2)CC1 (stereo not given),"29.1 µM [falling, single point]",
COc1ccc2oc(-c3ccccc3[N+](=O)[O-])cc(=O)c2c1,,"35.5 µM [falling, partial curve, poor fit]"
CN(C)S(=O)(=O)c1cccc(NC(=S)N/N=C/c2ccc(O)c(O)c2O)c1,"35.5 µM [falling, single point]",
O=C(NCc1ccccc1C(F)(F)F)c1cccc2c1C(=O)c1ccc(N3CCOCC3)cc1S2(=O)=O,"14.6 µM [rising, single point]",
COc1ccccc1NC(=S)NCc1cccs1,"0.58 µM [rising, full curve, poor fit]",
O=C(CCc1ccccc1)NCCc1ccc(F)cc1,"35.5 µM [falling, single point]",
COc1ccccc1C(=O)Nc1ccc2nc(SCC(=O)N(C)C)sc2c1,"9.2 µM [rising, partial curve, poor fit]",
O=C(Nc1ccc(Cl)cc1)N1CCSc2ccccc21,"4.47 µM [rising, partial curve]",

# Copied from the list.
# AC50 [1] with CCCc1cc(C(=O)Cc2nc3ccccc3s2)c(O)cc1O reads 14.1 µM [falling, single point]
# AC50 [1] with O=C(CCc1ccccc1)NCCc1ccc(F)cc1 reads 35.5 µM [falling, single point]
# AC50 [1] with COc1ccccc1NC(=S)NCc1cccs1 reads 0.58 µM [rising, full curve, poor fit]
# AC50 [2] with COc1cc(OC)c(N2CC(C(=O)Nc3cc(Cl)ccc3N3CCOCC3)CC2=O)cc1Cl (stereo not given) reads 20.6 µM [falling, single point]

# (next part)

Structure (SMILES),AC50 [1],AC50 [2]
COc1ccc(-n2nnnc2SCC(=O)Nc2ccc3c(c2)OCCO3)cc1OC,"25.9 µM [rising, single point]",
O=C(N/N=C/c1cc(Br)c(O)c(Br)c1)c1cccnc1,"3.55 µM [falling, single point]",
COC(=O)c1cc(C#N)c(NCc2ccccc2)nc1C,"29.1 µM [rising, single point]",
COc1ccc(C(=O)OCC(=O)Nc2ccc(N3CCOCC3)cc2)cc1OC,"29.1 µM [rising, single point]",
O=C(CSc1nnc(-c2ccc(O)cc2)o1)Nc1ccccc1Br,"14.1 µM [falling, partial curve, poor fit]",
O=C(NCc1ccc(F)cc1)C(c1ccc(Cl)cc1)N(C(=O)c1csnn1)C1CC1 (stereo not given),"20 µM [falling, partial curve, poor fit]",
CCCCn1c(N)c(N(C(=O)CSc2nnc(C)n2-c2ccccc2)C2CCCC2)c(=O)[nH]c1=O,"2.31 µM [rising, partial curve, poor fit]",
O=C(NCCc1ccc2c(c1)OCCO2)c1cccc(S(=O)(=O)N2CCCC2)c1,"0.291 µM [rising, full curve, poor fit]",
Cc1ccnc(NS(=O)(=O)Cc2ccccc2)c1,"31.6 µM [rising, single point]",
O=C1c2cc3ccccc3c(-c3ccccc3)c2C(=O)N1c1ccccn1,"14.6 µM [rising, partial curve]",
Cc1c(C(c2ccc(Br)cc2)c2c(C)n(C)n(-c3ccccc3)c2=O)c(=O)n(-c2ccccc2)n1C,"10 µM [rising, partial curve]",
Cc1cccc2nc(-c3cccnc3)c(Nc3ccccc3)n12,"35.5 µM [falling, single point]",
Cc1ccccc1N/C=C/C(=C(C#N)C#N)N(C)C,"6.31 µM [rising, single point]",
O=C(N/N=C/c1cccnc1)c1cc2c(ccc3ccccc32)o1,"14.6 µM [falling, partial curve, poor fit]",
O=C(COc1ccccc1[N+](=O)[O-])NCCC1=CCCCC1,"0.562 µM [rising, full curve, poor fit]",
CSc1nnc(Cc2sc(-c3ccccc3)nc2-c2ccccc2)o1,"0.092 µM [rising, full curve, poor fit]",
CC(C)C1C(=O)NC(=S)N1S(=O)(=O)c1ccc(C(C)(C)C)cc1 (stereo not given),"20.6 µM [falling, partial curve, poor fit]","20.6 µM [rising, partial curve, poor fit]"
Cc1ccc(NCc2nnc(SCC(N)=O)n2CCc2ccccc2)cc1,"0.517 µM [falling, full curve, poor fit]",
Cc1c(C(=O)O)sc2nc(SCC(=O)Nc3ccc(S(=O)(=O)NC(C)(C)C)cc3)[nH]c(=O)c12,"35.5 µM [falling, single point]",
CCOC(=O)c1cc(-c2ccccc2)n(-c2cccc(C(=O)Nc3cccc(C(C)=O)c3)c2)c1C,"3.98 µM [falling, single point]",

Structure (SMILES),AC50 [1],AC50 [2]
CCN(CC)S(=O)(=O)c1cccc(C(=O)Nc2nc3cc4c(cc3s2)OCCO4)c1,"14.1 µM [falling, partial curve, poor fit]",
CCc1cc2cc(C)cc(C)c2nc1SCC(=O)N1CCN(C(=O)c2ccco2)CC1,"11.2 µM [rising, partial curve, poor fit]",
O=C(O)c1cccc(S(=O)(=O)Nc2cc(Cl)ccc2Cl)c1,"3.55 µM [rising, single point]",
O=S(=O)(NCCO)c1ccc2c(c1)Cc1cc(S(=O)(=O)NCCO)ccc1-2,"35.5 µM [rising, partial curve, poor fit]",
Nc1nonc1-n1nnc(C(=O)N/N=C/c2ccccc2F)c1CN1CCc2ccccc21,"1.58 µM [rising, partial curve, poor fit]",
O=C(NCC(c1ccco1)N1CCc2ccccc2C1)c1ccc(Cl)c([N+](=O)[O-])c1 (stereo not given),"29.1 µM [falling, single point]",
COc1cc(C(C(=O)NC(C)(C)C)N(C(=O)CNC(=O)c2cccs2)c2ccc(C(C)C)cc2)cc(OC)c1OC (stereo not given),"35.5 µM [rising, partial curve, poor fit]",
CC(=O)Nc1ccc(NC(=O)C/C(C)=N/NC(=O)C(=O)Nc2ccc(C)c(Cl)c2)cc1,"3.16 µM [falling, single point]",
COc1ccc2c(CC(=O)N3CCc4ccccc43)coc2c1,"1.84 µM [falling, full curve, poor fit]",
Cc1nc(N)sc1C(=O)OCC(C)C,"35.5 µM [rising, single point]",
COC(=O)c1c(O)c2ccccc2[nH]c1=O,"9.2 µM [falling, single point]",
CC(C)NC(=O)NC(=O)COC(=O)C1CCCN1C(=O)c1cccs1 (stereo not given),"0.58 µM [rising, full curve, poor fit]",
CC1CN(c2nc3ccccc3nc2C(C#N)C(=O)NCc2ccc3c(c2)OCO3)CC(C)O1 (stereo not given),"7.31 µM [rising, partial curve, poor fit]",
C[C@@H](NC(=O)[C@@H]1Cc2ccccc2CN1)C(=O)NC1CCCCC1,"3.55 µM [falling, full curve]",
Cc1ccc(S(=O)(=O)NCCC(=O)NCCSc2ccc(Br)cc2)cc1,"35.5 µM [rising, partial curve, poor fit]",
CSc1cccc(NC(=O)C2CCCN(S(=O)(=O)c3ccc(F)cc3)C2)c1 (stereo not given),"29.1 µM [falling, single point]",
COc1ccc(O[C@H]2C=C[C@@H](c3ccccc3)O[C@@H]2COC(=O)CCC(C)=NO[C@@H]2O[C@H](COC(C)=O)[C@@H](OC(C)=O)[C@H](OC(C)=O)[C@H]2OC(C)=O)cc1,"5.17 µM [rising, partial curve, poor fit]","10.3 µM [falling, partial curve, poor fit]"
O=C(c1cc(-c2ccc(F)cc2)on1)N1CCCCCC1,"7.08 µM [falling, full curve]",
CSc1ncccc1C(=O)OCc1ccccc1F,"5.62 µM [falling, single point]","5.62 µM [rising, single point]"
COC(=O)/C=C/C(=O)Nc1cccc(C(F)(F)F)c1,"2.59 µM [falling, full curve]",
